PMC6002036, “Characterization of a non-nudix pyrophosphatase points to interplay between flavin and NAD(H) homeostasis in Saccharomyces cerevisiae” (PLoS ONE, 2018)
No constants are given. Whether binding was seen depends on the method and setting. In cells and extracts the contact can be indirect. Where a sequence is shown, tags or fusion partners need not be part of it.

Biological target: T1, Fad1p (FAD synthetase), bait or prey fusion strain of the Protein Interactome collection (S. cerevisiae) (UniProt P38913)
T1 sequence: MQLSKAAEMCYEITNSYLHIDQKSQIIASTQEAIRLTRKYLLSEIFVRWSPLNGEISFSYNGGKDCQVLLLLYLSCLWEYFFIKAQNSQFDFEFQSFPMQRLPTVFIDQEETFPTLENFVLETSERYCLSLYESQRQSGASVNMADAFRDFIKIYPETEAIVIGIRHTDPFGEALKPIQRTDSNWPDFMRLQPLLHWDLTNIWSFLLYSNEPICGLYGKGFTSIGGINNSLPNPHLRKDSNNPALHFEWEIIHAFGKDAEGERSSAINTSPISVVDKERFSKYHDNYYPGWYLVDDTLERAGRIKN
Assay: split reporter; bait-prey fusion complementation giving methotrexate resistance (method adapted from Tarassov et al.); bait and prey strains mated, diploids spotted onto SD-Lys-Met plates with 200 ug/ml methotrexate

binding: no binding
B1: Fpy1p, bait or prey fusion strain of the Protein Interactome collection (enzyme, UniProt Q03219 1-274)
chain: MVKVTAACIIIGDEVLNGKVVDTNSTFFAKYCFDHGIQLKEIATIGDDETQIVDTVRRLVKNYDFIISTGGIGPTHDDITYECMAKSFNLPCELDEECKERMRHKSDPEARLDADALKAHYQMATMPKGTNVKNYYVCDDLWVPICSISHKMYILPGIPQLFARMLKAFTPTLKKIYNLDKDPREYVRYFVRTHLTESQISKELKLIQDESTKVSEAIKIGSYPHFGMGFNTVSILGEKKDDSYLKSIVNRVVNNLEGEVISSELENKFSNQES
